Results deposited as PubChem BioAssay AID602196 (INSERM, 2012)
The deposit covers about 23,000 reagents; shown is a part drawn at random. 455 of them (2%) count as active. 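Active includes both protection and sensitisation; some change values fall well beyond the stated -50 to +50 range.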 Entries without a mark were called inactive. Reagents against one gene are numbered here. Further read-outs or replicates are left out here. The record does not give: the amount of reagent.

Test: 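Knock-downs that protect lung cancer cells from cisplatin or sensitise them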
Cells: human A549 lung cancer cells
Reagents: siRNA pair against human genes
Time to read-out: 48 h transfection before cisplatin; time from cisplatin to read-out not stated
Conditions: cisplatin at a dose killing half of control-siRNA cells; exact dose and duration not given
Measured: 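Cisplatin cell death as a shift from the 50% death seen with control siRNA; siRNAs toxic or growth-blocking alone scored 0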
Reading the numbers: two-siRNA summed score (-2 to +2): higher = both siRNAs protect from cisplatin killing; -2 means both sensitise; mean protection from cisplatin (shift in death): higher = protection from cisplatin killing
Active means: 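siRNAs harmful alone (LDH or WST-1) get 0; others get +1 for less and -1 for more cisplatin killing; genes are active when the two siRNAs give the same sign, summing to ±2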
Meaning of the calls: active = both siRNAs shift cisplatin killing the same way; inactive = no consistent shift, or siRNA harmful alone

{"gene knocked down": "IGFL2", "reagent no.": 1, "two-siRNA summed score (-2 to +2)": 0, "mean protection from cisplatin (shift in death) (%)": 6.8}
{"gene knocked down": "PRKCD", "reagent no.": 1, "two-siRNA summed score (-2 to +2)": -1, "mean protection from cisplatin (shift in death) (%)": -7.4}
{"gene knocked down": "SCN1B", "reagent no.": 1, "two-siRNA summed score (-2 to +2)": -1, "mean protection from cisplatin (shift in death) (%)": -7.7}
{"gene knocked down": "OAS3", "reagent no.": 1, "two-siRNA summed score (-2 to +2)": -1, "mean protection from cisplatin (shift in death) (%)": -10.1}
{"gene knocked down": "SUN2", "reagent no.": 1, "two-siRNA summed score (-2 to +2)": 0, "mean protection from cisplatin (shift in death) (%)": 2.3}
{"gene knocked down": "LOC440962", "reagent no.": 1, "two-siRNA summed score (-2 to +2)": 0, "mean protection from cisplatin (shift in death) (%)": 7.9}
{"gene knocked down": "CRYZL1", "reagent no.": 1, "two-siRNA summed score (-2 to +2)": 0, "mean protection from cisplatin (shift in death) (%)": 2.5}
{"gene knocked down": "LRTM1", "reagent no.": 1, "two-siRNA summed score (-2 to +2)": 0, "mean protection from cisplatin (shift in death) (%)": 4}
{"gene knocked down": "OR5H15", "reagent no.": 1, "two-siRNA summed score (-2 to +2)": 0, "mean protection from cisplatin (shift in death) (%)": 9.3}
{"gene knocked down": "TAF15", "reagent no.": 1, "two-siRNA summed score (-2 to +2)": 0, "mean protection from cisplatin (shift in death) (%)": 8.8}
{"gene knocked down": "EFNA3", "reagent no.": 1, "two-siRNA summed score (-2 to +2)": 0, "mean protection from cisplatin (shift in death) (%)": -2.7}
{"gene knocked down": "KIAA0650", "reagent no.": 1, "two-siRNA summed score (-2 to +2)": 0, "mean protection from cisplatin (shift in death) (%)": -16.4}
{"gene knocked down": "MOAP1", "reagent no.": 1, "two-siRNA summed score (-2 to +2)": 0, "mean protection from cisplatin (shift in death) (%)": 3.3}
{"gene knocked down": "LOC441629", "reagent no.": 1, "two-siRNA summed score (-2 to +2)": 0, "mean protection from cisplatin (shift in death) (%)": 1.9}

3 successive records from above, quoted:
{"gene knocked down": "OAS3", "reagent no.": 1, "two-siRNA summed score (-2 to +2)": -1, "mean protection from cisplatin (shift in death) (%)": -10.1}
{"gene knocked down": "SUN2", "reagent no.": 1, "two-siRNA summed score (-2 to +2)": 0, "mean protection from cisplatin (shift in death) (%)": 2.3}
{"gene knocked down": "LOC440962", "reagent no.": 1, "two-siRNA summed score (-2 to +2)": 0, "mean protection from cisplatin (shift in death) (%)": 7.9}

More entries follow.
{"gene knocked down": "SCAPER", "reagent no.": 1, "two-siRNA summed score (-2 to +2)": 0, "mean protection from cisplatin (shift in death) (%)": 3.4}
{"gene knocked down": "SHC2", "reagent no.": 1, "two-siRNA summed score (-2 to +2)": 0, "mean protection from cisplatin (shift in death) (%)": 0.4}
{"gene knocked down": "FBXO25", "reagent no.": 1, "two-siRNA summed score (-2 to +2)": 1, "mean protection from cisplatin (shift in death) (%)": 10.1}
{"gene knocked down": "SNN", "reagent no.": 1, "two-siRNA summed score (-2 to +2)": 0, "mean protection from cisplatin (shift in death) (%)": -6.4}
{"gene knocked down": "LOC441022", "reagent no.": 1, "two-siRNA summed score (-2 to +2)": 1, "mean protection from cisplatin (shift in death) (%)": 8.5}
{"gene knocked down": "RHOQ", "reagent no.": 1, "two-siRNA summed score (-2 to +2)": 0, "mean protection from cisplatin (shift in death) (%)": 4}
{"gene knocked down": "KIF27", "reagent no.": 1, "two-siRNA summed score (-2 to +2)": -1, "mean protection from cisplatin (shift in death) (%)": -21.8}
{"gene knocked down": "LOC441869", "reagent no.": 1, "two-siRNA summed score (-2 to +2)": 0, "mean protection from cisplatin (shift in death) (%)": 25.1}
{"gene knocked down": "COLGALT1", "reagent no.": 1, "two-siRNA summed score (-2 to +2)": 0, "mean protection from cisplatin (shift in death) (%)": 4.3}
{"gene knocked down": "ECI1", "reagent no.": 1, "two-siRNA summed score (-2 to +2)": 0, "mean protection from cisplatin (shift in death) (%)": 0.1}
{"gene knocked down": "PI16", "reagent no.": 1, "two-siRNA summed score (-2 to +2)": 0, "mean protection from cisplatin (shift in death) (%)": 5.1}
{"gene knocked down": "RASD2", "reagent no.": 1, "two-siRNA summed score (-2 to +2)": -1, "mean protection from cisplatin (shift in death) (%)": -11.2}
{"gene knocked down": "DRD2", "reagent no.": 1, "two-siRNA summed score (-2 to +2)": -1, "mean protection from cisplatin (shift in death) (%)": -2}
{"gene knocked down": "OR5P2", "reagent no.": 1, "two-siRNA summed score (-2 to +2)": -1, "mean protection from cisplatin (shift in death) (%)": -5}
{"gene knocked down": "RPS26", "reagent no.": 1, "two-siRNA summed score (-2 to +2)": 0, "mean protection from cisplatin (shift in death) (%)": -11.2}
{"gene knocked down": "RPS26", "reagent no.": 2, "two-siRNA summed score (-2 to +2)": 0, "mean protection from cisplatin (shift in death) (%)": -2.6}
{"gene knocked down": "CYSRT1", "reagent no.": 1, "two-siRNA summed score (-2 to +2)": 0, "mean protection from cisplatin (shift in death) (%)": 18.3}
{"gene knocked down": "TPRKB", "reagent no.": 1, "two-siRNA summed score (-2 to +2)": -1, "mean protection from cisplatin (shift in death) (%)": -5.6}
{"gene knocked down": "TTC22", "reagent no.": 1, "two-siRNA summed score (-2 to +2)": 0, "mean protection from cisplatin (shift in death) (%)": 5}
{"gene knocked down": "SLC28A3", "reagent no.": 1, "two-siRNA summed score (-2 to +2)": 0, "mean protection from cisplatin (shift in death) (%)": -1.8}
{"gene knocked down": "EFS", "reagent no.": 1, "two-siRNA summed score (-2 to +2)": 1, "mean protection from cisplatin (shift in death) (%)": 9.5}
{"gene knocked down": "DNAJC10", "reagent no.": 1, "two-siRNA summed score (-2 to +2)": 0, "mean protection from cisplatin (shift in death) (%)": -2.1}
{"gene knocked down": "NKX2-2", "reagent no.": 1, "two-siRNA summed score (-2 to +2)": 0, "mean protection from cisplatin (shift in death) (%)": 9}
{"gene knocked down": "ZFP64", "reagent no.": 1, "two-siRNA summed score (-2 to +2)": 0, "mean protection from cisplatin (shift in death) (%)": -4.8}
{"gene knocked down": "LOC440369", "reagent no.": 1, "two-siRNA summed score (-2 to +2)": 0, "mean protection from cisplatin (shift in death) (%)": 9.4}
{"gene knocked down": "C22orf15", "reagent no.": 1, "two-siRNA summed score (-2 to +2)": 0, "mean protection from cisplatin (shift in death) (%)": 2.2}
